Assay results reported in publication PMC10302582, “Unveiling the Potential of BenzylethyleneAryl–Urea Scaffolds for the Design of New Onco Immunomodulating Agents” (Pharmaceuticals, 2023).

Test system: HT-29 (colon adenocarcinoma)
Assay: MTT cell proliferation assay, HT-29
Assay type: cell-based, human
Settings: tumor-selectivity index
Protocol: (§1) After the supernatant was discarded, we solved the formazan crystal in 100 µL of DMSO. The absorbance was then registered at 550 nm using a plate lector. For all concentrations of any compound, cell viability was expressed as the percentage of the ratio between the mean absorbance of the treated cells and the mean absorbance of the untreated cells. Three to five experiments were performed to establish the IC50 values (i.e., concentration half inhibiting cell proliferation, we used GraphPad Prism 7 software).

Row | SMILES | SI (HT-29) (IC50HEK293/IC50HT-29)
1 | Cc1c(COc2ccc(CN3CCCCC3C(=O)O)cc2Br)cccc1-c1ccccc1 (centres unmarked) [BMS-8, reference compound] | 3
2 | COc1ccc(CCCc2cccc(NC(=O)Oc3ccccc3)c2)cc1 [C.1] | No effect
3 | COc1ccc(CCCc2cccc(NC(=O)Nc3ccccc3)c2)cc1 [C.2] | 0.5
4 | COc1ccc(CCCc2cccc(NC(=O)Nc3ccc(F)cc3)c2)cc1 [C.3] | No effect
5 | COc1ccc(CCCc2cccc(NC(=O)Nc3cccc(F)c3)c2)cc1 [C.4] | <0.2
6 | COc1ccc(CCCc2cccc(NC(=O)Nc3ccc(Cl)cc3)c2)cc1 [C.6] | 1.0
7 | COc1ccc(CCCc2cccc(NC(=O)Nc3cccc(Cl)c3)c2)cc1 [C.7] | 1.0
8 | COc1ccc(CCCc2cccc(NC(=O)Nc3ccccc3Cl)c2)cc1 [C.8] | 0.8
9 | COc1ccc(CCCc2cccc(NC(=O)Nc3ccc(Br)cc3)c2)cc1 [C.9] | 1.1
10 | COc1ccc(CCCc2cccc(NC(=O)Nc3cccc(Br)c3)c2)cc1 [C.10] | 0.8
11 | COc1ccc(CCCc2cccc(NC(=O)Nc3ccccc3Br)c2)cc1 [C.11] | 1.8
12 | COc1ccc(CCCc2cccc(NC(=O)Nc3ccc(OC)cc3)c2)cc1 [C.12] | No effect
13 | COc1ccc(CCCc2cccc(NC(=O)Nc3cccc(OC)c3)c2)cc1 [C.13] | 1.9
14 | COc1ccc(CCCc2cccc(NC(=O)Nc3ccccc3OC)c2)cc1 [C.14] | No effect

Test system: A-549 (pulmonary adenocarcinoma)
Assay: MTT cell proliferation assay, A-549
Assay type: cell-based, human
Settings: tumor-selectivity index
Protocol: as §1

Row | SMILES | SI (A-549) (IC50HEK293/A-549)
15 | Cc1c(COc2ccc(CN3CCCCC3C(=O)O)cc2Br)cccc1-c1ccccc1 (centres unmarked) [BMS-8, reference compound] | 10
16 | COc1ccc(CCCc2cccc(NC(=O)Oc3ccccc3)c2)cc1 [C.1] | No effect
17 | COc1ccc(CCCc2cccc(NC(=O)Nc3ccc(F)cc3)c2)cc1 [C.3] | No effect
18 | COc1ccc(CCCc2cccc(NC(=O)Nc3cccc(F)c3)c2)cc1 [C.4] | <0.2
19 | COc1ccc(CCCc2cccc(NC(=O)Nc3ccccc3F)c2)cc1 [C.5] | 0.8
20 | COc1ccc(CCCc2cccc(NC(=O)Nc3ccc(Cl)cc3)c2)cc1 [C.6] | 0.2
21 | COc1ccc(CCCc2cccc(NC(=O)Nc3ccccc3Cl)c2)cc1 [C.8] | <0.4
22 | COc1ccc(CCCc2cccc(NC(=O)Nc3cccc(Br)c3)c2)cc1 [C.10] | 1.1
23 | COc1ccc(CCCc2cccc(NC(=O)Nc3ccccc3Br)c2)cc1 [C.11] | 1.3
24 | COc1ccc(CCCc2cccc(NC(=O)Nc3ccc(OC)cc3)c2)cc1 [C.12] | 83
25 | COc1ccc(CCCc2cccc(NC(=O)Nc3cccc(OC)c3)c2)cc1 [C.13] | 0.8
26 | COc1ccc(CCCc2cccc(NC(=O)Nc3ccccc3OC)c2)cc1 [C.14] | No effect
